Changes are numbered by the printed parent chain. These are yes or no findings as the source states them, for the method shown. Some entries that bind do so weakly or less than the wild type. Sequences can lack the tags named with a protein.
B1: 16F6 antibody (antibody, V domains shown)
VH: QVQLQQSGAELMKPGASVKISCKATGYTFSTYWIAWVKQRPGHGLEWIGEILPGSAKTKYNKKFKGKATFTADTSSNTAYMQLSSLTSEDSAVYYCAVYDYGADYWGQGTSVTVSS
VL: DIVMTQSHKFMSTSVGDRVSITCKASQDVYTAVAWYQQKPGQSPKLLIYSASYRFTGVPDRFTGSGAGTEFTFTINSVQAEDLAVYYCQQHYSIPRTFGGGTKLEIK
B2: 14A1 antibody (antibody, V domains shown)
VH: QIQLVQSGPELKKPGETVKISCKASGYTFTNYGMNWVKQAPGKGLKWMGWINTYSGVPTYADDFKGRFAFSLETSASTAYLQINNFKNEDTATYFCARFSYYGRHYFDYWGQGTALTASS
VL: DIVLTQSPASLAVSLGQRATISCKASQSVDYDGDSYMNWYQQKPGQPPKLLIYAASNLKSGIPARFSGSGSGTDFTLNIHPVEEEDAATYYCQQTTDDPPWTFGGGTKLEIK
B3: 53A11 antibody (antibody, V domains shown)
VH: EVQLQQSGPELLKPGASVKISCKASGYTFTDYTMHWVKQSHGKSLEWIGGINPYYGGTTYNEKFKDKATLTVDKSSSTAYMELRSLTSEDSAVYYCAKGDYYGGSYNYWGQGTTLTVSS
VL: DIVLTQSLATLSVTPGDSVSLSCRASQDISNSLHWYQQKSHESPRLLIKYASQSISGIPSRFSGSGSGTDFTLSINSVETEDFGMYFCQQSNSWPYTFGGGTKLEIK
B4: 55A1 antibody (antibody, V domains shown)
VH: QIHLVQSGPELKKPGETVKISCKASGYTFTNYGMNWVKQAPGKGLKWMGWINTYSGVPTYAGDFKGRFAFSLETSASTAYLQINNLKNEDTATYFCARRGYYGRRYFDVWGTGTTVTVSS
VL: DIVLTQSPASLAVSLGQRATISCKASQSVDYDVDSYMHWYQQKPGQPPKLLIYAASNLASGIPARFSGGGSGTDFTLNIHPVEEEDVATYYCQQTIEDPPTFGGGTKLEIK
B5: 13B3 antibody (antibody, V domains shown)
VH: EVQLQQSGPELLKPGASVKISCKASGYTFTEYTMHWVKQSHGKSLEWIGSINPYYGGTSYNEKFKDKATLTVDKSSNTAYMEFRSLTSEDCAVYYCARYGNYVGYFDYWGQGTTLTVSS
VL: ENVLTQSPAIMSASLGEKVTMSCRASSSVHYMYWYQQKSDASPKLWIYYTSNLAPGVPDRFSGSGSGNSYSLTISSMEGEDAATYYCQQFTSSPYTFGGGTKLEIK
B6: 23H8 antibody (antibody, V domains shown)
VH: EVQLQQSGPELLKPGASVKISCKASGYTFTDNTIHWVKQSHGKSLEWIGHINPYYGGTNNNEKFKDKATLTVDKSSSTAYMELRSLTSEDSAIYYCARKGIYYSSPFDYWGQGTTLTVSS
VL: DIQMTQTTSSLSASLGDRVTISCRASQDINNYLNWYQQKPDGTVKLLISYTSKLHSGVPSRFSGSGSGTDYSLTISNLEREDFATYFCQQGNTLPFTFGSGTNLEIK
B7: 16B3 antibody (antibody, V domains shown)
VH: DVKLVESGGGLVQPGGSLKLSCTASGFTFSGYTMSWVRQTPEKRLELVAEISFARDRAFYPDTVKGRFTISRDNAKNTLYLQMSSLKSEDTAMYYCTRLGGRNHDYWYFDVWGTGTTVTVSS
VL: DIVLTQSPTSLAVSPGQRATISCRASESVEYYGTSLMQWYQQKPGQRPQLLIYAASNVESGVPARFSGSGSGTDFSLNIHPVEEDDIAVYFCQQSWKVPFTFGSGTKLEIK
B8: 14E1 antibody (antibody, V domains shown)
VH: QVQLQQSGAELVKPGASVRLSCKASGYTFTKYTIHWVKQRSGQGLEWIGWFYPGSDSIKYNEKFKDKATLTADKSSRTVYMELSRLTSEDSAVYFCARHEEYTNSLAYWGQGTLVTVSA
VL: B6 VL with N30S, K39Q, S49Y, K53R, R80Q, F83I, N92Y, F96W, S100G
B9: 19E7 antibody (antibody, V domains shown)
VH: QVQLQQPGSVLVRPGASVKLSCKASGYTFTTYWMHWVKQRPGQGLEWIGEIHPYSGNNNNNEKFKGKATLTVDTSSSTAYVDLSRLTSEDSAVYYCARYDSNYVFAYWGQGTLVTVSA
VL: QIVLTQSPAIMSASPGEGVTITCSASSSVSYMHWFQQKPGTSPKLWIYSTSNLASGVPARFSGSGSGTSYSLTISRMEAEDAATYYCQQRDSYLTFGSGTKLEVK
B10: 7D4 antibody (antibody, V domains shown)
VH: B2 VH with G44D, F86L, A115T, A118V
VL: B2 VL with K49Q, K59G, Q93H, T95S

target: T1, human [1-305]-mouse chimeric EL with C2 tag (human; mouse) (UniProt Q9WVG5); test: ELISA as in FIG. 3A-3K (A450 against antibody concentration; Example 8 format, not described for 16F6 in the text)
T1 sequence: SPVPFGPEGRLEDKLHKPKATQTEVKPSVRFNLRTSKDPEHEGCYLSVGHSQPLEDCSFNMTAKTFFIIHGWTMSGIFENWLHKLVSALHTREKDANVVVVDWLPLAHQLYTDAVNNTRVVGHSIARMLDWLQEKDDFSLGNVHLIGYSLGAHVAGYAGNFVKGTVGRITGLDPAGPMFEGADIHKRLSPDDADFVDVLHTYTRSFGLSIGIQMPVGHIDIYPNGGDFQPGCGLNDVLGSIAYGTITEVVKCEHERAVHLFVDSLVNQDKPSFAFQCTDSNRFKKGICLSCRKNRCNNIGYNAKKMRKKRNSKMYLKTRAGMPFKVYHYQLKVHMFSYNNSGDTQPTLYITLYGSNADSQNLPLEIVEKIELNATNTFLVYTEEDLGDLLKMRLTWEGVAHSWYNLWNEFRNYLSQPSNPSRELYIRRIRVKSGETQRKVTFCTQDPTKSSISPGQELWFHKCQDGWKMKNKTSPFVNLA

Binder	binding
B1	binds

target: T2, baboon EL (vascular endothelial lipase) with C2 tag (baboon); test: as above
T2 sequence: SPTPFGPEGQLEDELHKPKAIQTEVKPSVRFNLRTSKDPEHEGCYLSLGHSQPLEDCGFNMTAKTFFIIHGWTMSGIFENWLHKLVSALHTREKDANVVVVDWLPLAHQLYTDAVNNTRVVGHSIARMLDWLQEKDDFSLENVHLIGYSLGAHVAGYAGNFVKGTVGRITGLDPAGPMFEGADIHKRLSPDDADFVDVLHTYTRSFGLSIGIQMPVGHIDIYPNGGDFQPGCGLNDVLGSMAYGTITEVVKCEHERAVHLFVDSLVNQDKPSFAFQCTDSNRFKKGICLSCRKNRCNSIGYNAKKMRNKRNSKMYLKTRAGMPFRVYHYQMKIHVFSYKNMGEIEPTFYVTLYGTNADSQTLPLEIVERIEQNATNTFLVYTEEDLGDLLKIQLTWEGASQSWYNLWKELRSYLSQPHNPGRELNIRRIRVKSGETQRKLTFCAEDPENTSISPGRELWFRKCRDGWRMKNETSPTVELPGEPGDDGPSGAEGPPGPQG

Binder	binding
B1	binds

target: T2, baboon EL (vascular endothelial lipase) with C2 tag (baboon); test: screening ELISA: hybridoma antibody on anti-mouse IgG-Fc plate, baboon EL heparin extract, anti-C2-tag detection

Binder	binding
B2	binds
B3	binds
B4	binds
B5	binds
B6	binds
B7	binds
B8	binds
B9	binds
B10	binds

target: T3, human [202-500]-mouse chimeric EL with C2 tag (mouse; human) (UniProt Q9WVG5); test: sandwich ELISA: antibody captured on anti-mouse IgG-Fc plate, EL heparin extract added, detected by anti-C2-tag antibody
T3 sequence: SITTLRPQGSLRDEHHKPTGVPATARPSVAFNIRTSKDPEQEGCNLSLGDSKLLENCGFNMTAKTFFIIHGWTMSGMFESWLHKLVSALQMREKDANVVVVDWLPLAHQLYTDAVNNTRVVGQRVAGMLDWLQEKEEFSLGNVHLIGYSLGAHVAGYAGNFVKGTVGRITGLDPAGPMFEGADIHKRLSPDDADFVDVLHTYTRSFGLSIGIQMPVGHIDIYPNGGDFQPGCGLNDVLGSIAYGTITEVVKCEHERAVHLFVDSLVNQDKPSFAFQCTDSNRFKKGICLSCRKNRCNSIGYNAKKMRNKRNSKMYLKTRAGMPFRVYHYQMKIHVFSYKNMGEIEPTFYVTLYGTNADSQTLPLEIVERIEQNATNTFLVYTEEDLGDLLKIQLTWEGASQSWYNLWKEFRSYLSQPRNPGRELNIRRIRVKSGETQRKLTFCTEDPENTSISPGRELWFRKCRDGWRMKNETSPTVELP

Binder	binding
B9	binds

target: T1, human [1-305]-mouse chimeric EL with C2 tag (human; mouse); test: as above

Binder	binding
B7	binds
B8	binds

target: T2, baboon EL (vascular endothelial lipase) with C2 tag (baboon); test: as above

Binder	binding
B2	binds
B3	binds
B4	binds
B5	binds
B6	binds
B7	binds
B8	binds
B9	binds
B10	binds

target: T3, human [202-500]-mouse chimeric EL with C2 tag (mouse; human); test: ELISA: antibody captured on anti-mouse IgG-Fc plate, C2-tagged EL heparin extract added, anti-C2-tag detection, A450 (Example 8)

Binder	binding
B9	binds

target: T1, human [1-305]-mouse chimeric EL with C2 tag (human; mouse); test: as above

Binder	binding
B7	binds
B8	binds

target: T2, baboon EL (vascular endothelial lipase) with C2 tag (baboon); test: as above

Binder	binding
B2	binds
B3	binds
B4	binds
B5	binds
B6	binds
B7	binds
B8	binds
B9	binds
B10	binds

Source: US20160009819A1
